Primary screen of a compound library

Protein sequences, listed by entry. Tags and fused reporters are not part of them. Residues count along the entry.
UniProt Q8IDJ8, 1-583: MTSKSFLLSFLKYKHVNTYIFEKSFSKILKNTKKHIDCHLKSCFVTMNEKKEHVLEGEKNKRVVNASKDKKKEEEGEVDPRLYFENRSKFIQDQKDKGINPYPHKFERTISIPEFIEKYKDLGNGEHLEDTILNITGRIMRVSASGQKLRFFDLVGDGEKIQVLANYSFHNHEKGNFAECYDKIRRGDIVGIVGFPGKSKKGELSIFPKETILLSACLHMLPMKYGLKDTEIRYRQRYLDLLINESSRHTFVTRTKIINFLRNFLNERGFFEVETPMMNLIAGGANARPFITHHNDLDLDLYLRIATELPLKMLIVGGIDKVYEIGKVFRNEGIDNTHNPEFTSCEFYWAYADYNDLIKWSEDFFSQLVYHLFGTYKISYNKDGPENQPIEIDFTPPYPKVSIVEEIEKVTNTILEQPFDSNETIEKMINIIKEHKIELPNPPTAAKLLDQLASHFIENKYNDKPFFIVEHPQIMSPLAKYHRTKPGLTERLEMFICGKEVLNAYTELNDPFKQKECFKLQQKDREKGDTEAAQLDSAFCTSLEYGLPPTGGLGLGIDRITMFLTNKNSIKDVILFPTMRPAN

Source: ChEMBL document CHEMBL3988442, “University of Dundee, Small-Polar-MMV Screening Library” (2021).

Values are the deposited “Percent Effect”, in %. The controls that fix the scale are not given in the record; negative values are as filed. This is an unselected part of the compounds tested.

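Lysine-tRNA ligase, Plasmodium falciparum 3D7 (UniProt Q8IDJ8). Enzyme assay of the cytosolic lysyl-tRNA synthetase in 384-well plates, read by luminescence. Concentration: 30 µM. Direction is inferred from only a few compounds that gave an IC50; most scored high, so higher reads as stronger inhibition. About 69,000 compounds were tested under these conditions; 0.071% (about 49) showed 50% or more at least once.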

| compound | Percent Effect |
|---|---|
| `CC(C)c1nnc(CNC2CCCN(Cc3noc(C4CC4)n3)C2)o1` (stereo not given) | 0.8534% |
| `CCS(=O)(=O)c1ncc(CN(C)Cc2ccccc2OC)n1CCOC` | -1.409% |
| `CC(Oc1ccc(S(C)(=O)=O)cc1)C(=O)NC(N)=O` (stereo not given) | -1.428% |
| `Cc1ccc(CN2CCNC(=O)C2CC(=O)NCc2n[nH]c(C)n2)cc1` (stereo not given) | 6.847% |
| `O=C(Cn1cnc(-c2ccccc2)cc1=O)Nc1ccncc1` | 6.752% |
| `CCCNC(=O)c1cc(-c2cnc(N3CCCC3)nc2)cn1C` | 1.12% |
| `CC(=O)N1CCCC(c2ccc(C(N)=O)cn2)C1` (stereo not given) | 1.225% |
| `CN(C)C(CNC(=O)N(Cc1ccco1)C1CC1)c1cccs1` (stereo not given) | 2.856% |
| `NCCNS(=O)(=O)Cc1ccc(Br)cc1` | 0.4292% |
| `CN(CC1CCCCO1)c1ncnc2cc(F)ccc12` (stereo not given) | 6.378% |
| `CCOCCC(=O)N(Cc1ccncc1)C(C)CC` (stereo not given) | 3.08% |
| `CC(C)c1cccc(NC(=O)Cn2c(=O)n(C)c(=O)c3sccc32)c1` | -0.04669% |
| `CN(CC(O)C1CC1)C(=O)Nc1ccc(F)c(-n2cccc2)c1` (stereo not given) | 1.916% |
| `c1cncc(NCCCNC2CCSC2)c1` (stereo not given) | 5.455% |
| `COc1cc(C(=O)NCC2CCCN(Cc3ccco3)C2)ccn1` (stereo not given) | 2.727% |
| `O=C(c1cc(F)cc(Cl)c1)N1CCN(CCO)[C@@H]2CS(=O)(=O)C[C@@H]21` | 2.935% |
| `Cc1cc(CNc2ccc(-c3nc(C4CC4)no3)cn2)no1` | -0.8898% |
| `CN(C)C(C(=O)NCC1(N(C)C)CCOCC1)c1ccccc1F` (stereo not given) | -0.2954% |
| `CCn1c(C)cc(C(=O)N2CCCC(n3ccnc3C)C2)c1C` (stereo not given) | 0.9456% |
| `O=C(Nc1ccc(F)cc1)N1C[C@H]2C[C@H](C(=O)N3CCOCC3)[C@@H](C1)O2` | 4.446% |
| `FC(F)(F)c1ccc(CN2CCN(Cc3cscn3)CC2)cc1` | 26.87% |
| `CN1CCN(c2cccc(NC(=O)NCc3csc(N(C)C)n3)c2)C1=O` | 4.204% |
| `NC1CCCN(Cc2cccc(C(F)(F)F)c2)C1=O` (stereo not given) | 1.941% |
| `COCc1nc(CNC2CCCC(C)(C)C2)no1` (stereo not given) | -0.2436% |
| `c1cc(CCn2ccc(NC3CCSCC3)n2)ccn1` | 3.63% |
| `CC(C)N1CCC(C(=O)N2CCC(C(O)c3nccn3C)CC2)CC1` (stereo not given) | 2.445% |
| `CCC(C(=O)NCc1ccncc1)N(c1cccc(C)c1)S(C)(=O)=O` (stereo not given) | -0.7786% |
| `CC(C)NC(=O)COc1nc(C(C)(C)C)no1` | 1.203% |
| `O=C(c1cc(-n2cnnn2)ccc1Cl)N1CCOCC1` | 4.721% |
| `Cc1cccc(C(=O)N2C[C@@H]3OCCN(c4ncccn4)[C@@H]3C2)n1` | -0.5695% |
| `Cc1ccc(O)c(C(=O)NCCS(=O)(=O)Cc2ccccc2)c1` | -0.9918% |
| `O=C(O)c1ccc(CNC(=O)C2CCN(C(=O)C3CCC3)CC2)s1` | 3.747% |
| `CN(C)CCCN1CC2(CCN(C(=O)C3(C)CCCCO3)CC2)OC1=O` (stereo not given) | 1.538% |
| `Cc1ccc(NC(=O)c2ncc(C(N)=O)cc2Cl)cc1F` | 1.568% |
| `CN(C)c1nccc(N(C)C2CCCCC2)n1` | 6.073% |
| `CN1CCS(=O)(=O)[C@@H]2CCN(C(=O)CC(C)(C)C)CC[C@@H]21` | 4.85% |
| `CC(O)CN1CCN(C(=O)CCOC(C)C)CC1` (stereo not given) | 5.639% |
| `COc1cc(C)c(C2CC(=O)NCc3nc4sccn4c32)cc1C` (stereo not given) | -0.4503% |
| `O=C(Nc1cccc(N2CCN(CC3CC3)CC2)c1)C1CCOC1` (stereo not given) | -3.21% |
| `COCCn1ccc2c(NC(=O)c3n[nH]c4c3CCCC4)cccc21` | 2.604% |
| `Cn1cnnc1S(=O)(=O)C1CCN(C(=O)c2ccco2)CC1` | -0.1374% |
| `COc1ccc(CN2CC[C@@]3(C2)[C@H](O)CN(C)S3(=O)=O)cc1F` | 2.463% |
| `NC(=O)C1CCCN(C(=O)c2ccc(-n3ccnc3)cc2)C1` (stereo not given) | 0.2091% |
| `CCCNS(=O)(=O)Cc1ccc(Br)cc1` | 0.101% |
| `Cc1ccc2nc(C3CCCN(CC(C)C)C3)nc(O)c2c1` (stereo not given) | -3.758% |
| `CN1CCN(C2CCCC2)C(CCO)C1` (stereo not given) | 7.429% |
| `Fc1cccc(-c2nc(CN3CCOC(Cn4cccn4)C3)co2)c1` (stereo not given) | 7.056% |
| `COc1ccc(NC(=O)N2CCC3(CC2)NC(=O)CC3C(=O)O)cc1Cl` (stereo not given) | -0.3438% |
| `Cc1cc(SC(C)(C)C)ccc1NC(=O)CNC(N)=O` | 1.199% |
| `O=C(NCCNc1ncccn1)C1CC(=O)N(Cc2ccco2)C1` (stereo not given) | 1.701% |
| `CC(C)(C)n1c(NC(=O)CNC(=O)NC2CC2)nc2ccccc21` | 11.29% |
| `CN(C)C1COC2(CCN(S(=O)(=O)c3ccc(F)cc3)CC2)C1` (stereo not given) | 1.715% |
| `CCCc1cnc(C)nc1NCCc1nc(C)cc(=O)[nH]1` | 2.917% |
| `CCCn1nnc(NCc2ccccc2OCc2ccc(Cl)cc2)n1` | -0.05837% |
| `COc1ccc(F)cc1CN1CCCC1Cn1nc(C)nc1C` (stereo not given) | -0.1742% |
| `CC(C)CN1CCCC1c1cc[nH]n1` (stereo not given) | 0.8238% |
| `Cc1cc(NCCn2cccn2)n2ncnc2n1` | -1.346% |
| `CC(C)CC(=O)N[C@H](C)c1c(-c2ccc(Cl)cc2)noc1C(=O)O` | 5.174% |
| `CC(C)(C)OC(=O)NCC1CCCCN1Cc1ccccn1` (stereo not given) | 4.127% |
| `CN1[C@H](CO)C[C@H](CNCc2ccc(CO)o2)[C@@H]1c1ccccc1F` | 4.428% |
| `COc1ccc(CCC(=O)Nc2cccnc2N2CCCC2)cc1Br` | -1.132% |